Data as given in PubChem BioAssay AID652243 (Drosophila RNAi Screening Center, 2013).
The deposit covers about 24,000 reagents; shown is a random part of those that have a named target and a result. Of all reagents, 246 (1%) got an active call. 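Plates not normalised; calls are printed but the firefly/Renilla ratio behind them is not deposited; fold cut for lowering reported inconsistently.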 Raw values are not corrected between plates. Names joined by + are all predicted targets of the reagent. Not stated in the record: the amount of reagent.

Aim: 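Fly regulators of androgen-dependent reporter output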 (primary screen)
System: Drosophila S2R+ cells
Knock-down reagent: long dsRNA against Drosophila genes
Duration: 72 h (48 h, then 24 h hormone)
Challenge: synthetic androgen R1881 at 10 nM for 24 h
Measured: 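Per-well raw luminescence of the androgen-driven firefly reporter and of the Renilla control, two replicates each, without normalisation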
Direction: firefly reporter light: higher = more light from androgen-responsive reporter; Renilla control light: higher = more constitutive control signal (cell number, transfection)
Call rule: 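Hit when the log firefly-to-Renilla ratio dropped or increased by a fixed fold versus the mean of GFP or LacZ controls across duplicate plates; lowering cut given as 1.5 and as 3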
Calls: active = hit: reporter lowered or raised; inactive = no hit

predicted target,DRSC id,"firefly reporter light, replicate 1","firefly reporter light, replicate 2","Renilla control light, replicate 1","Renilla control light, replicate 2",outcome
CG15167,DRSC02468,1.56e5,2.16e5,1.74e6,1.90e6,inactive
Obp57c + Obp57b,DRSC21914,6.49e5,7.24e5,2.26e6,1.28e6,inactive
Obp57c + Obp57b,DRSC24245,4.46e5,3.24e5,4.73e5,6.24e5,inactive
CG1983,DRSC15410,1.84e5,2.90e5,2.70e6,3.61e6,inactive
CG30480,DRSC06736,37840,78984,1.13e6,1.13e6,inactive
CG30480,DRSC28831,4.64e5,4.62e5,1.36e6,1.50e6,inactive
Cpr65Av,DRSC09727,2.52e5,2.29e5,3.29e6,2.93e6,inactive
Cpr65Av,DRSC26499,2.36e5,1.58e5,5.66e5,4.06e5,inactive
GstD5,DRSC16686,1.20e5,1.57e5,2.17e6,2.60e6,inactive
GstD5,DRSC25144,7.53e5,4.33e5,4.64e5,6.03e5,inactive
CG9555,DRSC03264,1.33e5,1.40e5,1.21e6,1.36e6,inactive
CG9555,DRSC25330,6.89e5,9.30e5,8.24e5,9.94e5,inactive
CkIIalpha-i3,DRSC08651,3.89e5,7.95e5,1.43e6,1.44e6,inactive
CG42789,DRSC13793,5.22e5,5.47e5,3.22e6,3.89e6,inactive
heix,DRSC03542,8.19e5,9.06e5,8.16e5,1.16e6,inactive
CG42355,DRSC07967,1.68e5,1.51e5,2.75e5,2.38e5,inactive
Sln,DRSC07133,2.15e5,1.95e5,2.06e6,1.74e6,active
Sln,DRSC24171,7.55e5,8.81e5,1.16e6,1.24e6,inactive
CG7695,DRSC16289,1.76e5,1.73e5,2.25e6,2.41e6,inactive
CG15429,DRSC00444,1.23e5,1.72e5,6.63e5,1.06e6,inactive
CG15429,DRSC26501,2.69e5,2.41e5,2.57e5,3.40e5,inactive

Next part (5 carried over from the part before).
predicted target,DRSC id,"firefly reporter light, replicate 1","firefly reporter light, replicate 2","Renilla control light, replicate 1","Renilla control light, replicate 2",outcome
Sln,DRSC07133,2.15e5,1.95e5,2.06e6,1.74e6,active
Sln,DRSC24171,7.55e5,8.81e5,1.16e6,1.24e6,inactive
CG7695,DRSC16289,1.76e5,1.73e5,2.25e6,2.41e6,inactive
CG15429,DRSC00444,1.23e5,1.72e5,6.63e5,1.06e6,inactive
CG15429,DRSC26501,2.69e5,2.41e5,2.57e5,3.40e5,inactive
CG14043,DRSC02368,1.32e5,52594,1.18e6,8.50e5,inactive
CG14043,DRSC29925,4.00e5,3.93e5,1.27e6,1.09e6,inactive
Amy-d,DRSC05919,1.73e5,1.88e5,1.74e6,1.74e6,inactive
DCTN1-p150,DRSC11175,8.23e5,2.77e5,1.37e6,7.98e5,inactive
DCTN1-p150,DRSC23441,7.15e5,3.94e5,6.62e5,5.31e5,inactive
Pop4,DRSC10955,2.00e5,1.99e5,2.13e6,1.27e6,inactive
Pop4,DRSC29825,3.83e5,2.94e5,7.95e5,8.87e5,inactive
GstS1,DRSC07436,9.23e5,8.83e5,2.14e6,1.30e6,inactive
Uvrag,DRSC02932,7.45e5,1.00e6,2.25e6,2.39e6,inactive
CG17032,DRSC10241,1.91e5,1.09e5,1.94e6,1.56e6,inactive
nw,DRSC06451,1.85e5,1.69e5,3.18e6,3.18e6,inactive
nw,DRSC06749,1.04e6,7.54e5,6.78e5,5.95e5,inactive
nw,DRSC06896,1.25e5,1.01e5,1.35e6,1.35e6,inactive
nw,DRSC25619,7.93e5,9.15e5,9.63e5,1.19e6,inactive
nw,DRSC29422,5.16e5,5.30e5,1.69e6,1.69e6,inactive
CG14797 + CG32809,DRSC18562,3.93e5,3.21e5,3.31e6,3.36e6,inactive
CG30471,DRSC07096,1.01e6,8.71e5,1.85e6,2.22e6,inactive
CG31777,DRSC00201,2.16e5,2.01e5,4.07e5,3.85e5,inactive
CG12310,DRSC09878,1.97e5,1.20e5,2.50e6,1.36e6,inactive
CG12310,DRSC25358,9.68e5,1.17e6,1.31e6,1.21e6,inactive
CG10600,DRSC02074,6.95e5,6.44e5,1.60e6,1.53e6,inactive
Nup44A,DRSC07248,1.13e6,4.73e5,2.14e6,1.30e6,inactive
Nup44A,DRSC28141,3.06e5,3.89e5,1.30e6,1.09e6,inactive
CG15254,DRSC01870,3.93e5,3.96e5,3.42e6,2.65e6,inactive
CG15254,DRSC21765,2.79e5,2.80e5,1.75e6,2.07e6,inactive
CG15254,DRSC29568,1.99e5,2.15e5,8.89e5,8.89e5,active
IP3K1 + hpRNA:CR18854,DRSC23313,5.84e5,5.39e5,1.56e6,1.47e6,inactive
CG13326,DRSC06363,1.26e6,3.91e5,1.98e6,8.78e5,inactive
Tsp42Ek,DRSC06187,3.73e5,4.45e5,2.04e6,2.91e6,inactive
CG10098,DRSC12509,40821,29690,2.95e5,3.06e5,inactive
CG10098,DRSC26223,2.61e5,2.47e5,7.40e5,7.67e5,inactive
vtd,DRSC38781,6.67e5,7.29e5,1.17e6,1.35e6,inactive
CG11404,DRSC11656,2.84e5,2.33e5,2.08e6,2.18e6,inactive
CG11404,DRSC27005,3.94e5,3.60e5,5.88e5,7.15e5,inactive
CG1317,DRSC08305,9.08e5,4.86e5,1.65e6,1.40e6,inactive
Pka-R1,DRSC11674,11014,12175,2.67e5,2.89e5,active
Pka-R1,DRSC11875,26448,79516,6.06e5,3.90e5,inactive
Pka-R1,DRSC25205,1.17e6,9.37e5,1.32e6,9.10e5,inactive
Pka-R1,DRSC36597,,,,,inactive
Pka-R1,DRSC36598,,,,,inactive
